Laboratory results: PubChem BioAssay AID602196 (INSERM, 2012)
The deposit covers about 23,000 reagents; this is a random part of them. In the full data, 455 (2%) got an active call. 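Active includes both protection and sensitisation; some change values fall well beyond the stated -50 to +50 range.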 Further read-outs or replicates are left out here. The record does not give: the amount of reagent.

Purpose: 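Knock-downs that protect lung cancer cells from cisplatin or sensitise them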
Cells: human A549 lung cancer cells
Knock-down reagent: siRNA pair against human genes
Duration: 48 h transfection before cisplatin; time from cisplatin to read-out not stated
Conditions: cisplatin at a dose killing half of control-siRNA cells; exact dose and duration not given
Measurement: 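Shift in cisplatin death relative to control siRNA, from -50 (all cells die) to +50 (no cells die); siRNAs harmful on their own scored 0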
Scale: two-siRNA summed score (-2 to +2): higher = both siRNAs protect from cisplatin killing; -2 means both sensitise; mean protection from cisplatin (shift in death): higher = protection from cisplatin killing
Active means: 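Each siRNA scores 0 if harmful alone by LDH or WST-1, otherwise +1 if it reduces and -1 if it increases cisplatin killing; a gene is active when both siRNAs agree (sum +2 or -2)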
Calls: active = both siRNAs shift cisplatin killing the same way; inactive = no consistent shift, or siRNA harmful alone

The first 4 entries as a preview:
gene knocked down | two-siRNA summed score (-2 to +2) | mean protection from cisplatin (shift in death) (%) | call
UBE2L3 (ubiquitin conjugating enzyme E2 L3) | -2 | -20.2 | active
GPR17 (G protein-coupled receptor 17) | 0 | 3.4 | inactive
ACKR5 (atypical chemokine receptor 5) | 1 | 7.6 | inactive
LOC205251 | 1 | 10.5 | inactive

Main list, from the first entry:
gene knocked down | two-siRNA summed score (-2 to +2) | mean protection from cisplatin (shift in death) (%) | call
UBE2L3 (ubiquitin conjugating enzyme E2 L3) | -2 | -20.2 | active
GPR17 (G protein-coupled receptor 17) | 0 | 3.4 | inactive
ACKR5 (atypical chemokine receptor 5) | 1 | 7.6 | inactive
LOC205251 | 1 | 10.5 | inactive
OR52B6 (olfactory receptor family 52 subfamily B member 6) | 0 | -0.2 | inactive
FAM199X (family with sequence similarity 199, X-linked) | 1 | 12.9 | inactive
LOC440873 | 0 | 8.2 | inactive
SV2C (synaptic vesicle glycoprotein 2C) | 0 | -2.3 | inactive
CEP170 (centrosomal protein 170) | 0 | -5.8 | inactive
IGBP1 (immunoglobulin binding protein 1) | -1 | -10.2 | inactive
AASDHPPT | 0 | 5.2 | inactive
YIF1A | 0 | 14.3 | inactive
TMEM50B (transmembrane protein 50B) | 0 | 3.4 | inactive
USP30 (ubiquitin specific peptidase 30) | 0 | 2 | inactive
CASKIN1 (CASK interacting protein 1) | 0 | 5.7 | inactive
FSTL4 (follistatin like 4) | -1 | -5.5 | inactive
OR5D18 (olfactory receptor family 5 subfamily D member 18) | 0 | 5 | inactive
SLC25A33 | 0 | 12.3 | inactive
FZD7 (frizzled class receptor 7) | -1 | -8.9 | inactive
EBLN2 (endogenous Bornavirus like nucleoprotein 2) | 0 | 6.6 | inactive
AMBP (alpha-1-microglobulin/bikunin precursor) | -1 | -12.8 | inactive
SH3BP5L (SH3 binding domain protein 5 like) | 0 | 13.7 | inactive
MEF2D (myocyte enhancer factor 2D) | 0 | 16 | inactive
LOC89231 | 2 | 10.4 | active
SLC12A4 | 0 | -4.4 | inactive
KIRREL1 (kirre like nephrin family adhesion molecule 1) | 0 | -3.1 | inactive
C2orf66 (chromosome 2 open reading frame 66) | 1 | 10.2 | inactive
ZSWIM4 (zinc finger SWIM-type containing 4) | 0 | 11 | inactive
KCNMA1 (potassium calcium-activated channel subfamily M alpha 1) | 0 | -7.3 | inactive
PFDN5 (prefoldin subunit 5) | 0 | -12.6 | inactive
LOC389441 | 0 | 11.4 | inactive
LOC441999 | 0 | 1.9 | inactive
TNP1 (transition protein 1) | 1 | 2.8 | inactive
GATB (glutamyl-tRNA amidotransferase subunit B) | 0 | -2.2 | inactive
PANX1 (pannexin 1) | 0 | 8.3 | inactive
APAF1 (apoptotic peptidase activating factor 1) | 2 | 17.4 | active
MIGA1 (mitoguardin 1) | 0 | 5.4 | inactive
RAPGEF4 (Rap guanine nucleotide exchange factor 4) | 1 | 3.2 | inactive
LOC391437 | 0 | 17.7 | inactive
